Laboratory results from article PMC10511320.
The exact form of at least one protein or probe is not confirmed. The comparison behind a weaker result is the experiment's own reference, which may not be listed here.

System: INTAC complex (Integrator-PP2A) (human)
Assay: EMSA
Conditions: INTAC alone; EMSA: 100 nM Cy3 probe, 20 mM Tris-HCl pH 7.5, 50 mM NaCl, 5 mM MgCl2, 0.2 mM EDTA, 1 mM DTT, on ice 30 min; 6% native PAGE, 0.5x TBE, cold room; recombinant protein; label: 3' Cy3; single-stranded DNA

“TTTTTTTTTTTTTTTTTTTTTTTTTTTTTTTTTTTTTTTTTTTTTTTT [oligo (dT)48]”: binds more weakly.
